# In all, about 360,000 compounds went through this assay and about 7,500 (2.1%) were called active. Inconclusive means that the source gave no clear call. Such entries were picked first, then a sample of the others. Calls follow the shape of the dose curve; as a rule, active = well fitted inhibition curve with a large enough effect; inconclusive = small, poorly fitted or top-dose-only effect, or effect the other way; inactive = flat fitted curve, though single readings scatter. Where the call is inconclusive, the potency comes from a doubtful curve fit.
# Experiment: Nrf2 qHTS screen for inhibitors; also: nearly all actives have a fitted effect of over 60% in size
# Conditions: A549 ARE-Fluc reporter, luciferase luminescence, 18-24 h; activity change, negative = inhibition: at 46 µM (top of the series)
# In short: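 A549 ARE_Fluc cells, 5000/well, 5% FBS OPTI-MEM; compounds in dose-response, 18-24 h at 37 °C/5% CO2; CellTiter-Fluor viability read (Ex 405/Em 525), then BugLite luciferase luminescence = Nrf2 activity.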
# % is scaled to controls: 0 for no effect and ±100 for the full control effect; potency is read from the fitted curve at half-maximal effect.
Compound,Potency,"activity change, negative = inhibition"
N#CC1c2ccccc2C=CN1C(=O)N(c1ccccc1)c1ccccc1 (stereo not drawn),"inconclusive: 29.1 µM [falling, single point]",–
COc1ccc(S(=O)(=O)N2CCCCCC2)cc1NC(=O)Cc1ccc(OC)c(OC)c1,–,inactive: -5.21%
Cc1ccccc1NC(=O)CSc1nc2ccccc2o1,"inconclusive: 20.6 µM [activator, partial curve, poor fit]",–
O=C(CSc1ncnc2[nH]ncc12)Nc1nc(-c2ccc(F)c(F)c2)cs1,active: 6.51 µM,–
CCc1c(C(=O)NC2CCCc3ccccc32)[nH]c(C)c1C(C)=O (stereo not drawn),–,inactive: 1.45%
Cc1cc(C)nc(SCC(=O)Nc2ccccc2[N+](=O)[O-])n1,"inconclusive: 29.1 µM [falling, partial curve, poor fit]",–
Cc1csc(NC(=O)NCC2CCCC(CNC(=O)Nc3nc(C)cs3)C2)n1 (stereo not drawn),"inconclusive: 11.6 µM [activator, partial curve]",–
CN(C)c1ccc(/C=N/NC(=O)c2ccc(Cn3cc(Br)cn3)o2)cc1,"inconclusive: 29.1 µM [activator, single point]",–
COc1ccc(NC(=O)c2ccc(OC)cc2)cc1,"inconclusive: 0.731 µM [activator, full curve, poor fit]",–
O=[N+]([O-])c1ccc(/C=N/NC(=S)Nc2ccccc2C(F)(F)F)o1,–,inactive: -28.6%
Cn1c(CSCc2ccc(Cl)cc2)nnc1SCC(=O)Nc1nccs1,"inconclusive: 3.26 µM [falling, partial curve, poor fit]",–
Cc1ccc(S(=O)(=O)N2CCC(=O)N(CCOC(=O)Nc3ccc(C)c(C)c3)CC2)cc1,"inconclusive: 29.1 µM [falling, single point]",–
COC(=O)c1cc2sc(C)cc2n1CC(=O)Nc1ccc(C)c(C)c1,–,inactive: -0.396%
Cc1cccc(NC(=O)c2ccc3c(c2)OCCO3)c1,"inconclusive: 5.17 µM [activator, partial curve]",–
O=C(Nc1ccc(S(=O)(=O)NC2CCCCC2)cc1)c1ccc(Br)o1,active: 14.6 µM,–
COc1ccccc1C(=O)Nc1ccc(Oc2nnc(-c3ccc(C)cc3)c3ccccc23)cc1,"inconclusive: 2.59 µM [falling, partial curve]",–
O=C(CSc1nnc(Cn2nnc3ccccc32)o1)N(Cc1ccc(F)cc1)c1ccccc1,active: 5.8 µM,–
O=C(NCCN1CCOCC1)C(=O)c1c[nH]c2ccccc12,"inconclusive: 9.2 µM [activator, partial curve]",–
Cn1c2ccccc2c(=O)c2c(=O)n(C3CCCCC3)c(-c3ccco3)nc21,–,inactive: -4.53%
Cc1ccc2c(cnn2C(=O)CCCC(=O)NC(C)c2ccccc2)c1 (stereo not drawn),"inconclusive: 25.9 µM [activator, partial curve, poor fit]",–
CCn1c(SCC(=O)Nc2ccc(OCc3ccccc3)cc2)nnc1-c1ccco1,active: 14.6 µM,–
CC(=O)c1ccc(N2CCN(C(=O)CCCn3c(=S)[nH]c4cc5c(cc4c3=O)OCO5)CC2)cc1,"inconclusive: 18.4 µM [falling, single point]",–

Compound,Potency,"activity change, negative = inhibition"
CC(C)C(C)NC(=O)COC(=O)/C=C/c1ccc(S(=O)(=O)N2CCc3ccccc32)cc1 (stereo not drawn),"inconclusive: 0.184 µM [falling, full curve, poor fit]",–
CCCOc1ccc(CNCCCOCC)cc1OC,"inconclusive: 0.0366 µM [falling, full curve, poor fit]",–
COc1ccc(/C=C/C(=O)c2ccc3c(c2)OCCO3)cc1[N+](=O)[O-],"inconclusive: 14.6 µM [falling, partial curve, poor fit]",–
COc1ccc(NC(=O)c2cc3c(-c4ccc(OC)c(OC)c4)nn(C)c3s2)cc1OC,active: 11.6 µM,–
C=CCn1c(CCNC(=O)c2ccc(Cl)c(Cl)c2)nnc1SCCOc1ccc(OC)cc1,"inconclusive: 29.1 µM [falling, single point]",–
Cc1ccccc1OCCNC(=O)c1ccc2ccccc2n1,"inconclusive: 9.2 µM [activator, partial curve]",–
CN(C)c1ccc(/C=C2\CCC/C(=C\c3ccccc3)C2=O)cc1,–,inactive: 5.31%
Cc1nn(Cc2ccc(F)cc2)c(C)c1NC(=O)c1noc2c1CCCCC2,"inconclusive: 20.6 µM [falling, single point]",–
Cc1noc(NS(=O)(=O)c2ccc(NC(=O)/C=C/c3ccc(Br)cc3)cc2)c1C,"inconclusive: 20.6 µM [activator, partial curve, poor fit]",–
O=C(O)c1ccc(CNCc2ccc(Cl)cc2)s1,–,inactive: -2.02%
CCc1ccc(CN(C)C(=O)C2CCC(=O)N(Cc3cccc(OC)c3)C2)nc1 (stereo not drawn),"inconclusive: 16.4 µM [falling, single point]",–
CC(C)CNC(=S)Nc1ccccc1F,"inconclusive: 1.84 µM [activator, partial curve, poor fit]",–
CCOc1ccc(N/C=C\C(=O)c2ccc3c(c2)OCO3)cc1,–,inactive: 6.96%
O=C(Cn1cc(C(=O)c2ccco2)c2ccccc21)Nc1ccccc1F,"inconclusive: 6.51 µM [falling, full curve]",–
CCOC(=O)c1cc2sc(C)cc2n1CCCN1C(=O)c2ccccc2C1=O,"inconclusive: 32.6 µM [falling, partial curve, poor fit]",–
COc1ccc(/C=N/NC(=O)c2cccnc2)cc1CSc1ccccn1,"inconclusive: 20.6 µM [activator, partial curve]",–
Cc1c(-c2nc(-c3ccc4c(c3)OCO4)no2)nnn1-c1ccc(Br)cc1F,"inconclusive: 25.9 µM [falling, single point]",–
Cc1cc(C(=O)NCc2cc(C)n(C)n2)sc1-c1ccccc1,"inconclusive: 16.4 µM [falling, partial curve]",–
COc1ccc(NC(=O)c2c(C)nn(Cc3ccccc3)c2C)cc1S(=O)(=O)N(C)C,"inconclusive: 25.9 µM [falling, single point]",–
CC(C)Cn1c(N)c(S(=O)(=O)c2cccs2)c2nc3ccccc3nc21,"inconclusive: 23.1 µM [falling, partial curve]",–
CCc1c(C)sc(NC(=O)c2noc(C)c2[N+](=O)[O-])c1C#N,–,inactive: 8.4%

# An excerpt of these results, with bars between the fields:
Compound | Potency | activity change, negative = inhibition
CCc1ccc(CN(C)C(=O)C2CCC(=O)N(Cc3cccc(OC)c3)C2)nc1 (stereo not drawn) | inconclusive: 16.4 µM [falling, single point] | –
CC(C)CNC(=S)Nc1ccccc1F | inconclusive: 1.84 µM [activator, partial curve, poor fit] | –
CCOc1ccc(N/C=C\C(=O)c2ccc3c(c2)OCO3)cc1 | – | inactive: 6.96%

# Source: PubChem BioAssay AID504444 (National Center for Advancing Translational Sciences (NCATS), 2011)
